Reference: PMC7146716
Results are given in words; binding and its absence hold for the method and conditions named. Binding seen in cells or lysates may run through a third protein. These calls come from enrichment with a bait or labelling near it, and not all partners need be listed.

Molecular target: Flag-tagged TRIM62 (tripartite motif containing 62), chicken (chicken)
Assay: affinity purification with mass spectrometry; anti-Flag antibody on AminoLink coupling resin (Pierce Co-IP kit); lysate of pTRIM62-transfected CEF cells infected with REV for 72 h; washed three times with RIPA lysis buffer; eluate run on SDS-PAGE, trypsin digestion, LC-MS; control: empty vector, REV-infected

| Binder | binding |
| --- | --- |
| Ras-related protein Rab-5b (protein, UniProt Q5ZHW4 1-215) MTSRGAARPNGQSQASKICQFKLVLLGESAVGKSSLVLRFVKGQFHEYQESTIGAAFLTQSVCLDDTTVKFEIWDTAGQERYHSLAPMYYRGAQAAIVVYDITNQETFARAKTWVKELQRQASPSIVIALAGNKADLASKRMVEYEEAQAYADDNSLLFMETSAKTAMNVNDLFLAIAKKLPKSEPQSTSGAAGRSRGVDLHEQTQQNKSQCCSN | binds |
| Apolipoprotein A-I (protein, UniProt P08250 19-264) RSFWQHDEPQTPLDRIRDMVDVYLETVKASGKDAIAQFESSAVGKQLDLKLADNLDTLSAAAAKLREDMAPYYKEVREMWLKDTEALRAELTKDLEEVKEKIRPFLDQFSAKWTEELEQYRQRLTPVAQELKELTKQKVELMQAKLTPVAEEARDRLRGHVEELRKNLAPYSDELRQKLSQKLEEIREKGIPQASEYQAKVMEQLSNLREKMTPLVQEFRERLTPYAENLKNRLISFLDELQKSVA | binds |
